Assay: Absolute quantitation of TUMAP copies per cell by nanoLC-MS/MS, isolation efficiency and DNA-based cell count
Design: species or system human
Settings: absolute peptide quantitation in tumor samples

Copies per cell (median), ++ (>=100 = ++):
325 (RLLPKVQEV; listed as Homo sapiens) [compound 325], 323 (ILSVVNSQL; listed as Homo sapiens) [compound 323], 70 (GLFSQHFNL; listed as Homo sapiens) [compound 70]
